These are yes or no findings as the source states them, for the method shown. In cells and extracts the contact can be indirect. These calls come from enrichment with a bait or labelling near it, and not all partners need be listed.
B1: acidic ribosomal protein Rpp0 (protein, UniProt O74864 1-312)
chain: MAISKESKAQYFEKLRSLFEKYNSLFVVNIDNVSSQQMHTVRKQLRGTAELIMGKNTMIRRAMRGIINDMPELERLLPVVRGNVGFVFTNADLKEVRETIIANVIAAPARPNAIAPLDVFVPAGNTGMEPGKTSFFQALGIPTKITRGTIEITSDVHLVSKDAKVGPSEATLLNMLNISPFTYGMDVLTIYDQGNVFSPEILDVSEEDLIGHLLSAASIITAISLGANYPTILSVMHSVVNAYKNLVAVSLATEYTFEGTEQTKAFLADPSAFVVAAAPAAAAGGEAEAPAAEAAAEEEEESDEDMGFGLFD
B2: RNA polymerase I upstream activation factor complex subunit Spp27 (protein, UniProt O74503 1-233)
chain: MEEYETDIKQILGTVDRQTVSAKQVRQLLEERRKVDLSAHKKDLNALILKCFDETAAPSEKESLEKQAPARKTKGKRATENGTEEGKKPAKRTRKRKEDGEEGGKRKRNQDPANNPLNKPMKLSPKLAEFLGLEQLSRPQTVKKLWEYIKAHDLQDPNDKRTILCDDKLKSVFEVDTLHMFTMNKYLTNLMTKIPDDQLPKPQPKNEEPAAPNDLPKQEEKELVEPPTAESTA
B3: 19 S proteasome regulatory subunit Rpt3 (protein, UniProt O74894 1-389)
chain: MNSTEEIDLYNRWKALERQLEMLDLQEGFIKEDCKSLKRELIRAQEEVKRIQSVPLVIGQFLEAIDQNTAIVGSTTGSNYVVRILSTLDRELLKPSASVALQRHSNALVDILPPEADSSISMLRPDERPDVSYADVGGLDVQKQEVREAVELPLTQGDLYRQIGIDPPRGVLLYGPPGTGKTMLVKAVANSTAANFIRVVGSEFVQKYLGEGPRMVRDVFRMARENAPAIIFIDEIDAIATKRFDAQTGADREVQRILIELLTQMDGFDQGANVKVIMATNRADTLDPALLRPGRLDRKIEFPSYRDRRQRRLVFQTITAKMLLSPEVDLDTFIMRPDASSGAQIAAIMQDAGLLAVRKSRGVILQSDIEEAYARAVKPTDMEQFAFYK
B4: rpl2801 (protein, UniProt P57728 1-148)
chain: MPTHTSKTRKLRGHVSAGHGRIGKHRKHPGGRGKAGGLQHLRSHFDKYHPGYFGKVGMRRFHLMKNPLWRPTVNLDRLWTLVPNETREKYLGKNTEVAPVINVLQSGYGKVLGKGRLPDTPVIIQTRYVSRRAEEKIKQAGGVVELIA
B5: thioredoxin peroxidase Tpx1 (protein, UniProt O74887 1-192)
chain: MSLQIGKPAPDFKGTAVVNGAFEEIKLADYKGKWVFLGFYPLDFTFVCPTEIVAFSEAASKFAERNAQVILTSTDSEYSHLAFINTPRKEGGLGGINIPLLADPSHKVSRDYGVLIEDAGVAFRGLFLIDPKGVLRQITINDLPVGRSVDEALRLLDAFQFVEEHGEVCPANWHKGSDTIDTKNPEKYFSKH
B6: hmt2 (protein, UniProt O94284 25-459)
chain: ASTHHKVLVVGGGSAGISVAHQIYNKFSKYRFANDQGKDTSLKPGEIGIVDGAKYHYYQPGWTLTGAGLSSVAKTRRELASLVPADKFKLHPEFVKSLHPRENKIVTQSGQEISYDYLVMAAGIYTDFGRIKGLTEALDDPNTPVVTIYSEKYADAVYPWIEKTKSGNAIFTQPSGVLKCAGAPQKIMWMAEDYWRRHKVRSNIDVSFYTGMPTLFSVKRYSDALLRQNEQLHRNVKINYKDELVEVKGSERKAVFKNLNDGSLFERPFDLLHAVPSMRSHEFIAKSDLADKSGFVAVDQSTTQSTKFPNVFAIGDCSGLPTSKTYAAITAQAPVMVHNLWSFVNGKNLTASYNGYTSCPLLTGYGKLILAEFLYKQEPKESFGRFSRFLDQTVPRRMFYHLKKDFFPFVYWNFAVRNGKWYGSRGLIPPHFPVN
B7: 19 S proteasome regulatory subunit Mts4 (protein, UniProt P87048 1-891)
chain: MSSKDISSKSPSGNDALNDKKGTKTSETNDRNSTNNTKERDELEDLSEEDLQLKNDLELLVQAVQDATPELVGSSLTQLKEIIRTSTSSMTAVPKPLKFLRPHYFTLVKIYDSWPQSPQKTQLADILSVLGMSYSNTSKHESLKYRLQGVTTDPSLWGHEYVRHLASEIEEEFASRQEEEAPTDDLMELALTIVPFFLTHNAEADAIDLLQELGAIEKVVPFVELDNASRVCLYITSCVNLLPFPEDVAMLRTAHAIYRKFDQLTQALNVAIRLDDMSLIKEDCEAATDPLLKKQMSYMLARQQIPMDMGDEELNDALNNTHLSDHFHYLGKELNLMDPKVPEDIFKTHLEVARTGLGASGVYSAKQNLANTFVNALVNAGYSNDRLILVDDEKTSWIYKNKESGLISATASIGLLQLWNVDMGLSLLDKYLYSSEENTKAGALLGIGVTNVAVRNEADPAMAILSEYLETGSVKLRASAILGLGLAYSGANREDLLDMLSPIVTDTDCPMQLSCLAALSLGLIFVGTCNGDVASTILQTLMEREESAQNDQWGRFMALGLALLFNGKQDLADATVETLKAIEGKIARQAEILVDICSYAGTGNVLHIQKLLHICSEPPSDDAKESETTIQTFAALGVATIAMGEDIGAEMVLRHFDHMMHYGEPSIRKAIPLALGLLSASNPQMRIFDTLSRYSHDNDLDVAYNAIFAMGLVGAGTSNARLAQLLRQLASYYHKESNALFMVRIAQGLLYLGKGTMTLNPYHTERQILGQTAFAGLMTVVLAMLDANTFVLDTSHWLLYAITLAIRPRMLITLGEDGQYLPVSVRVGQAVDVVGQAGRPKVITGWVTHTTPVLLHHNERAELATEAYTPLTSLEGIVILKKNTEDIEMTA
B8: leu1 (protein, UniProt P18869 1-371)
chain: MCAKKIVVLPGDHIGPEIVASALEVLKVVEKKRPELKLEFEEHKIGGASIDAYGTPLTDETVKACLEADGVLLGAVGGPEWTNPNCRPEQGLLKLRKSMGVWANLRPCNFASKSLVKYSPLKPEIVEGVDFCVVRELTGGCYFGERTEDNGSGYAMDTWPYSLEEVSRIARLAAWLAETSNPPAPVTLLDKANVLATSRLWRKTVAKIFKEEYPHLTLKNQLIDSAAMLLVKSPRTLNGVVLTDNLFGDIISDEASVIPGSLGLLPSASLSGVVGKSEEKVHCLVEPIHGSAPDIAGKGIVNPVGTILSASLLLRYGLNAPKEAEAIEAAVRKVLDDTSIGGRGLYTRDLGGEASTADITKAVVEELEKIL
B9: pas1 (protein, UniProt P87049 1-411)
chain: MSKVNMRALLESFSTVILSIYPLAKSTNQQSHSHSLSLTQFLYETIRRSRVDYTTLLLALYYFIRFRDAASSKPTNYIPLLCGRRLFLVCLMAATKFLQDRSFSNRAWSRLSGLPVDKLLVLEYMFYQCIDYRLVVPKHIFARWSLLVGECCAHATARYDSTDPNVASFGSVAQYWVSLFSNVQSSLDDLFSIACLTKIAHRRMNANAALKNQATRKPSSSPQTTQDSSPILTMAPSTPVSVGSTPPSTPSVLPIAKQLAPMNVCKAHIQASNQSRTLTTASPPEQIPLMEPQVYVNPQVLPGRLSSLSKPVSLPPTPSSPKVGVYRPMTSKSNGGVAYCYNAQKLNNATGPVTFNMPFASVLPLAVSVSCDLGTASAYVASLPQPCSQKRHLEEDYSCLTEHSAKRRSYF
B10: rpl2401 (protein, UniProt Q92354 1-149)
chain: MKVEVCSFSGSKVYPGAGRLFVRGDNKVFRFVNKKSESLFLQRKNPRRLSWTVLYRRMHKKGISEEHAKKRTRRTVKHQRGIVGANLDVIKEKRNQRPEVRAAARAAALKQRKDKKAASESEKKAIKAKSAASSARGQAIKNAKAAARH
B11: hob3 (protein, UniProt Q9UUM7 1-264)
chain: MSWHGFKKAVNRAGTSVMMKTGHVERTVDREFETEERRYRTMESAAKKLQKEAKGYLDALRAMTASQTRIANTIDAFYGDAGSKDGVSAYYRQVVEDLDADTVKELDGPFRTTVLDPISRFCSYFPDINAAITKRNHKLLDHDAMRAKVQKLVDKPSNDTTKLPRTEKEAAMAKEVYETLNNQLVSELPQLIALRVPYLDPSFEALVKIQLRFCREGYEKMAQVQQYFDNSVREDYSNGLLDDKVEQVLQSMRDLSIAGLNNSQ
B12: Hsp104 heat shock protein (protein, UniProt O94641 1-905)
chain: MADYPFTDKAAKTLSDAYSIAQSYGHSQLTPIHIAAALLSDSDSNGTTLLRTIVDKAGGDGQKFERSVTSRLVRLPAQDPPPEQVTLSPESAKLLRNAHELQKTQKDSYIAQDHFIAVFTKDDTLKSLLAEAGVTPKAFEFAVNNVRGNKRIDSKNAEEGFDALNKFTVDLTELARNGQLDPVIGREDEIRRTIRVLSRRTKNNPVLIGEPGVGKTSIAEGLARRIIDDDVPANLSNCKLLSLDVGSLVAGSKFRGEFEERIKSVLKEVEESETPIILFVDEMHLLMGAGSGGEGGMDAANLLKPMLARGKLHCIGATTLAEYKKYIEKDAAFERRFQIILVKEPSIEDTISILRGLKEKYEVHHGVTISDRALVTAAHLASRYLTSRRLPDSAIDLVDEAAAAVRVTRESQPEVLDNLERKLRQLRVEIRALEREKDEASKERLKAARKEAEQVEEETRPIREKYELEKSRGSELQDAKRRLDELKAKAEDAERRNDFTLAADLKYYGIPDLQKRIEYLEQQKRKADAEAIANAQPGSEPLLIDVVGPDQINEIVARWTGIPVTRLKTTEKERLLNMEKVLSKQVIGQNEAVTAVANAIRLSRAGLSDPNQPIASFLFCGPSGTGKTLLTKALASFMFDDENAMIRIDMSEYMEKHSVSRLIGAPPGYVGHEAGGQLTEQLRRRPYSVILFDEIEKAAPEVLTVLLQVLDDGRITSGQGQVVDAKNAVIIMTSNLGAEYLTTDNESDDGKIDSTTREMVMNSIRGFFRPEFLNRISSIVIFNRLRRVDIRNIVENRILEVQKRLQSNHRSIKIEVSDEAKDLLGSAGYSPAYGARPLNRVIQNQVLNPMAVLILNGQLRDKETAHVVVQNGKIFVKPNHEANANGSADIDMDGIDDDVNDEELE

Sequences of proteins named here, by UniProt entry; tags and fusion partners are left off.
UniProt P04150: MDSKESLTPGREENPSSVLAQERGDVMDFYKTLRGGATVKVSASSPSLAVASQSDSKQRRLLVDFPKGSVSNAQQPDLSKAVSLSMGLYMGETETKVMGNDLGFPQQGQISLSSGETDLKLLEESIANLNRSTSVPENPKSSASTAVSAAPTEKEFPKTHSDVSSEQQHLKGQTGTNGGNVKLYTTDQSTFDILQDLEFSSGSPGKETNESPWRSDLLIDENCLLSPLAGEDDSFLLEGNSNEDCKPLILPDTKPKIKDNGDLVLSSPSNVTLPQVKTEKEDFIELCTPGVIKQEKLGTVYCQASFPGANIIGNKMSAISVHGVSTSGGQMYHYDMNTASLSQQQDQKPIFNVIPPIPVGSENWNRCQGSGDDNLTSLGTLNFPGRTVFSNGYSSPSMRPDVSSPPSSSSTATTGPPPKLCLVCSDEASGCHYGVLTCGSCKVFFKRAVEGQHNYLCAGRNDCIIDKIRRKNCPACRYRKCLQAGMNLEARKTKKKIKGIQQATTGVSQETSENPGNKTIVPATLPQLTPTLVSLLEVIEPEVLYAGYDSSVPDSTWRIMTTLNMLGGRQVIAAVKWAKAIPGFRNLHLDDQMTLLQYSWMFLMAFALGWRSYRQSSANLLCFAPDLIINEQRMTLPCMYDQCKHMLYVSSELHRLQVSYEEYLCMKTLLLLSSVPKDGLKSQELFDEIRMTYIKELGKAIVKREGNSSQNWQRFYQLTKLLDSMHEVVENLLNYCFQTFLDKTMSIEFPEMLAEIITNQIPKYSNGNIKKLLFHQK

target: human glucocorticoid receptor alpha (GRα), expressed in S. pombe (human) (UniProt P04150); assay: affinity purification with mass spectrometry; anti-GR antibody on epoxy-activated magnetic beads; lysates of S. pombe expressing hGRα (empty vector as control) grown at 30 °C or 39 °C (heat shock 30 min); lysis buffer 250 mM NaCl, 20 mM Tris pH 7.5, 1% Triton X-100, 100 mM potassium acetate; 4 °C, 1 hour, 6 washes; SDS-PAGE and LC-MS/MS

binding, binds:
B1
B2
B3
B4
B5
B6
B7
B8
B9
B10
B11
B12

Source: publication PMC5608759
